Experimental data taken from patent publication US20100021390A1, “Fluorescent Analogs Of The Islet Amyloid Polypeptide” (The Research Foundation of State University of New York, priority 2008, published 2010).

Columns and labels:
[1] = p-Cyanophenylalanine fluorescence kinetic assay of amyloid formation by the peptides; format: physicochemical; conditions: peptide alone, pH 7.4
Text: Wild-type IAPP, IAPP-Y37FC≡N and a G-FCN-A-A tetrapeptide were synthesized and the disulfide bond in IAPP was formed using dimethyl sulfoxide (DMSO) based oxidation as described in Abedini et al., Analytical Biochemistry 351, 181-186 (2006) incorporated herein by reference. The synthesis of peptides is well known in the art. Synthesizers such as the Applied Biosystems 433A are commercially available with ample instructions for use and are generally accessible to practitioners in the art. Fmoc-4-cyanoPhe was obtained from NovaBiochem. Peptides were purified via reverse phase HPLC and the identities confirmed by MALDI mass spectroscopy. Thioflavin-T fluorescence experiments were performed with a Jobin Yvon Horiba fluorescence spectrophotometer or with an Applied Phototechnology fluorescence spectrophotometer. P-cyanoPhe fluorescence was excited at 240 nm and detected at 296 nm with instrument slit widths of 10 nm on an Applied Photon Technologies fluorimeter. […]
Fibrillization reactions were initiated by diluting the stock 50-fold into buffered (20 mM Tris-HCl, pH 7.4) aqueous solution. […] The spectrum is the average of three repeats in a 0.1 cm quartz cuvette and recorded over a range of 190-250 nm, at 1 nm intervals, with an averaging time of three seconds per scan. […]

[2] = TEM of fibrils formed by the peptides; format: physicochemical; conditions: 2% HFIP, 20 mM Tris-HCl, pH 7.4

KCNTATCATQRLANFC≡NNLVHSSNNFGAILSSTNVGSNTY (KCNTATCATQRLANFLVHSSNNFGAILSSTNVGSNTY; p-cyanophenylalanine at position 15 (replaces Phe-15; written as F in the residues); disulfide bond linking residues 2 and 7 and amidated C-terminus as told for hIAPP peptides) [hIAPP-F15FC≡N, human IAPP with p-cyanophenylalanine at position-15]
time course of p-cyanophenylalanine fluorescence compared with thioflavin-T experiment [1]: identical | TEM images / morphology of amyloid fibrils compared with hIAPP [2]: the same

KCNTATCATQRLANFLVHSSNNFGAILSSTNVGSNTFC≡N (p-cyanophenylalanine at position 37 (replaces Tyr-37; written as F in the residues); disulfide bond linking residues 2 and 7; amidated C-terminus) [hIAPP-Y37FC≡N, human IAPP with Tyr-37 replaced with p-cyanoPhe]
time course of p-cyanophenylalanine fluorescence compared with thioflavin-T experiment [1]: identical | TEM images / morphology of amyloid fibrils compared with hIAPP [2]: indistinguishable
